Source: publication PMC12040169 (PLOS Biology, 2025)
The other results are listed elsewhere or left out.

tested on: T1, CTL2-GFP (C. trachomatis L2/434/Bu, GFP-expressing); parameters: species or system HeLa; Intracellular C. trachomatis growth in HeLa cells, bulk GFP fluorescence relative to DMSO; conditions: bulk GFP, single well; 28.5 h, 10 µM; inhibitor
T1 construct: L2/434/Bu, GFP-expressing

Compound | % of control remaining
Cc1ccc(-c2nnc(CN3C(=O)C4(CC(=O)N(Cc5ccccc5)C4=O)c4ccccc43)o2)cc1 (stereo not shown) [CBK075749] | 119.243%
CCCN1CC(NS(=O)(=O)c2cc(-n3cccn3)ccc2C)CC1=O (stereo not shown) [CBK306835] | 121.899%
O=C1CN(Cc2ccc(Cl)cc2)CCO1 [CBK023036C] | 170.859%
OC12CCCCC1CN(CC1=Cc3ccccc3OC1)CC2 (stereo not shown) [CBK282954] | 106.648%
COc1ccc(CN2C(=O)CO[C@H]3CN(C(=O)COc4ccccc4)C[C@H]32)cc1 [CBK289262] | 88.8468%
CCC1CN(C(C)=O)CCC1NCc1ccc(OCC(N)=O)cc1 (stereo not shown) [CBK305168] | 112.455%
CC(C)CN(C)CC(=O)NC1(c2ccccc2)CCC1 [CBK067455T] | 114.986%
O=S(=O)(c1ccc(Cl)cc1)c1ccc2ccnc(N3CCCNCC3)c2c1 [CBK036416C] | 129.947%
CCc1nc2c(N3CCC(n4nc(C)cc4C)C3)ncnc2o1 (stereo not shown) [CBK306785] | 92.9298%
Cc1c(S(=O)(=O)Nc2nnc(C(F)(F)F)s2)sc2ccc(Cl)cc12 [CBK062018] | 135.9%
COc1ccccc1OCC(=O)N1CCC(Cn2cncn2)(C2CCCCC2)CC1 [CBK136797] | 109.892%
O=C(Nc1cccc(Cl)c1)N1CCCC(c2nc(-c3ccccc3)c3ccccn23)C1 (stereo not shown) [CBK047233] | 124.057%
CN1CCN(C(=O)c2cccc(-n3cccn3)c2)C(c2ccccc2)C1 (stereo not shown) [CBK282013] | 124.104%
O=C1NCCc2c1[nH]c1c(Cl)cccc21 [CBK015762] | 111.6%
O=C(CCn1c(-c2ccccc2)c(-c2ccccc2)c2ccccc21)N/N=C/c1ccccc1O [CBK262353] | 42.5931%
CC(=O)N1CCN(CCNc2ncnc3sc4c(c23)CCC(C)C4)CC1 (stereo not shown) [CBK304897] | 109.503%
COCC(=O)N1CCN(C(=O)N2CCOCC2)C[C@@H]1C(=O)OC [CBK289613] | 102.44%
COc1cc(CN2CCN(c3cc(C)ccc3C)CC2)ccc1OCc1ccccc1 [CBK261898] | 119.388%
CN(C)C(=O)C1(c2ccccc2)CCNC1 (stereo not shown) [CBK023394C] | 86.7587%
O=C(Nc1ccccc1)c1ccc(S(=O)(=O)N2CCC(C(=O)O)CC2)cc1 [CBK267806] | 138.841%
C=C(Br)Cn1c(COc2cccc3ccccc23)nc2ccccc21 [CBK263373] | 92.1994%
CC(C)(C)NC(=O)CSc1nnc(Cc2cccc3ccccc23)n1-c1ccccc1 [CBK266039] | 84.2273%
O=C(CN1CCOCC1)Nc1ccc(Br)cc1[N+](=O)[O-] [CBK267314] | 94.2513%
Cc1ccc(C2(CN3CCN(CC4CCOC4)CC3)CC2)cc1 (stereo not shown) [CBK282479] | 142.209%
COc1cc(F)ccc1-c1ccnc2[nH]c(=O)ccc12 [CBK073727] | 114.102%
CCCCc1noc(C(C)S(=O)(=O)Cc2csc(CCCC)n2)n1 (stereo not shown) [CBK305431] | 104.494%
CC(C)Cc1cc(CNC(=O)C(C)n2cc(Cl)cn2)on1 (stereo not shown) [CBK281524] | 130.198%

Compound | % of control remaining
Cc1ccc(C2Nc3ccccc3C3=NCCCN32)o1 (stereo not shown) [CBK284488] | 59.8619%
CCn1cc(C(=O)O)c(=O)c2cc(F)c(N3CCN(C(=S)Nc4ccc(F)c(Cl)c4)CC3)cc21 [CBK267921] | 108.993%
CCN(CC)CCn1c2ccc(C)cc2c2nc(C)sc21 [CBK269764C] | 138.113%
COc1ccc([C@@]23CCC(NC(=O)Nc4ccc(OCc5ccccc5)cc4)C[C@@H]2N(C)CC3)cc1OC (stereo partly shown) [CBK047551T] | 100%
c1coc(-c2nccnc2NCc2cccs2)c1 [CBK037340] | 139.237%
Cn1c(=O)oc2ccccc2c1=O [CBK015658] | 117.834%
O=C(c1cc[nH]n1)N1CCOCC1 [CBK027868] | 147.992%
CN(C)CCN(C)c1cncc(-c2cccs2)n1 [CBK065679] | 143.145%
CC(C)CN(Cc1ccc2c(c1)OCO2)C(=O)NCc1ccc2c(c1)OCO2 [CBK159071] | 116.683%
CCN(CC)C(=O)Cc1ccc(NC(=O)NCc2cnn(C)c2)cc1 [CBK304918] | 119.133%
O=c1cc(-c2ccccc2)nc(N2CCOCC2)[nH]1 [CBK003840] | 117.097%
CSc1nnc(-c2cccc(C)c2)n1CC(C)C [CBK076764T] | 118.453%
O=C(NCc1ccco1)c1cnoc1-c1ccc(F)cc1 [CBK154960] | 92.5814%
CCOc1ccc(OC(=O)c2ccc(OC(F)(F)F)cc2)cc1 [CBK149207] | 98.7296%
NS(=O)(=O)c1cc(C(=O)NCCc2ccc(F)cc2)c(Cl)cc1Cl [CBK288512] | 103.097%
O=C1CCCN1CCCNC(=O)N1CCCCC1CO (stereo not shown) [CBK155985] | 87.8378%
O=C(O)CCNc1nc(Cc2ccccc2)nc2sc3c(c12)CCCC3 [CBK265345] | 110.437%
Cn1cnc2c1c(=O)n(CCCN1C(=O)C3(CC(=O)N(Cc4ccccc4)C3=O)c3cc(F)ccc31)c(=O)n2C (stereo not shown) [CBK075717] | 220.534%
COc1ccccc1C1NC(=O)COC12CCN(Cc1ccccc1)CC2 (stereo not shown) [CBK092265] | 100.113%
COCCn1c(CO)nnc1[C@H]1C[C@@H](NC(=O)c2ccc(O)c(F)c2)C1 [CBK307132] | 110.924%
CC(CNC(=O)c1ccc([N+](=O)[O-])o1)N1CCc2sccc2C1 (stereo not shown) [CBK297749] | 85.3964%
Cc1nn(Cc2ccccc2)c(Cl)c1C=Cc1cc(C(=O)O)c2ccccc2n1 [CBK296942] | 124.628%
CCNC(=O)Nc1ncc(-c2cc(OC)c(OC)c(OC)c2)c2cccnc12 [CBK070635] | 111.889%
O=C(/C=C/c1ccc(C(=O)Nc2cccnc2)cc1)Nc1cccnc1 [CBK265617] | 100%
CCCCN(C)c1c(CC)nc2ccc(C(=O)NCCc3ccccn3)cn12 [CBK145441] | 81.4179%
CCN(CC)C(=O)C1CCCN(C(=O)NCc2cc(C)on2)C1 (stereo not shown) [CBK156114] | 117.28%
CS(=O)(=O)N1CCN(c2ccccc2NC(=O)COc2ccc(Cl)cc2)CC1 [CBK268854] | 153.838%

In the list so far, 4 have a COOH group:
Compound | % of control remaining
O=C(Nc1ccccc1)c1ccc(S(=O)(=O)N2CCC(C(=O)O)CC2)cc1 [CBK267806] | 138.841%
CCn1cc(C(=O)O)c(=O)c2cc(F)c(N3CCN(C(=S)Nc4ccc(F)c(Cl)c4)CC3)cc21 [CBK267921] | 108.993%
O=C(O)CCNc1nc(Cc2ccccc2)nc2sc3c(c12)CCCC3 [CBK265345] | 110.437%
Cc1nn(Cc2ccccc2)c(Cl)c1C=Cc1cc(C(=O)O)c2ccccc2n1 [CBK296942] | 124.628%

Next entries follow.

Compound | % of control remaining
COc1cc2[nH]c(=S)n(CCc3ccc(S(N)(=O)=O)cc3)c(=O)c2cc1OC [CBK268457] | 117.855%
NNC(=O)c1cc2ccccc2cc1NS(=O)(=O)c1ccccc1 [CBK263261] | 101.785%
COc1ccc(-c2cc(NC3CCCCC3)ncn2)cc1 [CBK090904] | 198.015%
O=C1NC2(CC3CCC2N3Cc2ccco2)Nc2ccccc21 (stereo not shown) [CBK284446] | 130.191%
c1ccc(N2CCOCC2)c(COc2cncc(N3CCNCC3)n2)c1 [CBK172351G] | 121.527%
CCN1C(=O)C2(CC(=O)N(CCc3scnc3C)C2=O)c2cc(C)ccc21 (stereo not shown) [CBK075217] | 115.719%
Cc1cc(C)cc(NC(=O)C2C3C4CCC(C4)C23)c1 (stereo not shown) [CBK058768] | 124.564%
CCc1nccn1CCN1CCCC(COc2ccccc2F)C1 (stereo not shown) [CBK307416] | 134.032%
COc1ccc(N2C(=S)N(Cc3cccs3)[C@H]3[C@@H](O)[C@H](O)C[C@@H](C(N)=O)[C@H]32)cc1 [CBK288929] | 126.656%
Cc1[nH]c2ccccc2c1[C@H]1CC[C@@H](NC(=O)c2ccnn2C)C1 [CBK284761] | 139.689%
CN1CCN(c2cc(CNC(=O)c3ccnc(Cl)c3)ccn2)CC1 [CBK298275] | 126.794%
O=C(Nc1cccc(C(=O)O)c1)Nc1ccc(Cl)c(Cl)c1 [CBK155455G] | 106.736%
c1ccc2c(c1)OCC(COc1cncc(OC3CCN(CC4CCCCC4)C3)n1)O2 (stereo not shown) [CBK084387] | 102.609%
CN(C)c1nc(N(C)CC2(CO)CCOCC2)ncc1F [CBK307091] | 113.5%
CCC(=O)Nc1nc(-c2ccc(OC)cc2)cs1 [CBK070494] | 119.935%
Cc1cc(Cc2cccc(Cl)c2)cc(C2CCCN(C(=O)CN3CCCC3=O)C2)n1 (stereo not shown) [CBK286103] | 134.561%
CC(=O)Nc1ccc(S(=O)(=O)N2CCN(C(=O)COc3ccc4ccccc4c3)CC2)cc1 [CBK264164] | 125.753%
Cc1ccc(-c2ccc(CCC(=O)O)[nH]2)cc1 [CBK264820] | 98.5477%
Cc1c2cn[nH]c(=O)c2c(C)n1-c1ccccc1 [CBK018349] | 143.097%
O=C(O)CCCC(=O)Nc1ccc(Cc2ccncc2)cc1 [CBK300493] | 110.152%
CCOCCn1cnc2sc(C(=O)NCc3ccccn3)c(C)c2c1=O [CBK071857] | 141.366%
O=C1NN(c2ccc(F)c(Cl)c2)C(=O)/C1=C/c1ccc(-c2ccc(Cl)cc2)o1 [CBK095978] | 63.304%
Cc1c(Cl)cccc1S(=O)(=O)Nc1c(C(=O)N2CCOCC2)[nH]c2ccccc12 [CBK050076] | 131.696%
C#C[C@H]1C[N@@]2CC[C@H]1C[C@@H]2CNS(=O)(=O)c1ccc(NC(C)=O)cc1 [CBK288752] | 118.498%
FC(F)(F)Oc1ccc(-c2nccnc2OCC2COc3ccccc3O2)cc1 (stereo not shown) [CBK106845] | 93.614%
